Reference: article PMC6292692
Results are given in words; binding and its absence hold for the method and conditions named. Binding seen in cells or lysates may run through a third protein. Some binding calls cover weakened binding; strength is not graded here.

What was measured:
[1] = target: T1, RNF145 (RING Finger Protein 145), endogenous (human (endogenous in HeLa)) (UniProt Q96MT1); test: co-IP; endogenous RNF145 immunoprecipitated with anti-RNF145 and Protein A-Sepharose from 1% digitonin lysate, 4°C overnight; cells (HeLa WT; ΔUBE2G2 #1, also with gHMGCR or gCTR; HMGCR-Clover HeLa WT with gUBE2G2) sterol-depleted 20 hr, sterols added back 1 hr, with NMS-873 in some panels; partners eluted with 1% Triton X-100; HMGCR and Insig-1 detected by immunoblot
T1 sequence: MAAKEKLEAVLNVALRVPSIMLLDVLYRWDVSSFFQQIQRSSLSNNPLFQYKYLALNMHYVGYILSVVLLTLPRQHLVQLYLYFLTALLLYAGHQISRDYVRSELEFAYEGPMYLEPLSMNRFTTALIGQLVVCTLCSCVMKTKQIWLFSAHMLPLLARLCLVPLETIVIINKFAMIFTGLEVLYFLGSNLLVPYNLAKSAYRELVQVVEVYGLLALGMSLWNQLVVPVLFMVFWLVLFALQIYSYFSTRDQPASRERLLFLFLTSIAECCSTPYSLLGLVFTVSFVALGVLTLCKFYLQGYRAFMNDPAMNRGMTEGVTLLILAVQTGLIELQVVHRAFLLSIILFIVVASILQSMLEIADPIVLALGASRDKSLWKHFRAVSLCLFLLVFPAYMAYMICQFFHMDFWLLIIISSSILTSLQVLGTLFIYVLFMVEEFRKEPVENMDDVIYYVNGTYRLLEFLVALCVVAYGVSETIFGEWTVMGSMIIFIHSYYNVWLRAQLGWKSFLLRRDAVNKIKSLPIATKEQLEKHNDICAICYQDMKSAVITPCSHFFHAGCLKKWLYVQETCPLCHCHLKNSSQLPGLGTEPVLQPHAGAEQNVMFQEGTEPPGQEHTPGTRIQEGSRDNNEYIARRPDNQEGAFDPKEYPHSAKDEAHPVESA

[2] = target: T1, RNF145 (RING Finger Protein 145), endogenous (human (endogenous in HeLa)); test: condition: only sterol-depleted cells (20 hr), no sterols added back; co-IP; as a3 (HeLa WT; ΔUBE2G2 #1), but cells sterol-depleted (20 hr) without sterols added back

binding [1]: binds
binding [2]: no binding
B1: Insig-1 (Insulin Induced Gene 1), endogenous (protein, UniProt O15503 1-277)
chain: MPRLHDHFWSCSCAHSARRRGPPRASAAGLAAKVGEMINVSVSGPSLLAAHGAPDADPAPRGRSAAMSGPEPGSPYPNTWHHRLLQRSLVLFSVGVVLALVLNLLQIQRNVTLFPEEVIATIFSSAWWVPPCCGTAAAVVGLLYPCIDSHLGEPHKFKREWASVMRCIAVFVGINHASAKLDFANNVQLSLTLAALSLGLWWTFDRSRSGLGLGITIAFLATLITQFLVYNGVYQYTSPDFLYIRSWLPCIFFSGGVTVGNIGRQLAMGVPEKPHSD
